Test results as given in PubChem BioAssay AID687031 (Broad Institute, 2013).
The campaign covered roughly 1,400 compounds. About 50 (4%) were called active.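 The calls were made as follows: active = fitted curve reaches 30% CPE protection at or below the top valid dose, with every test run called active; inconclusive = test runs disagree, some active and some not; inactive = every test run inactive, including effects in the wrong direction.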 The list shows a part of the results. Measured potencies and affinities stand elsewhere.

Test: antiviral rescue of DENV2-infected BHK-21 cells – cell-based, ATP luminescence, cherry-pick, dose response (AID 687031);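 also: 0% = infected DMSO wells and 100% = uninfected cell wells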
Settings: BHK-21 DENV2 CPE protection, 5 d; at 19.5 µM (top of the series) unless noted

**Q.** With `C[C@@H]1CN([C@H](C)CO)C(=O)Cc2cc(NC(=O)Cc3ccccc3)ccc2O[C@@H]1CN(C)Cc1ccc(Cl)c(Cl)c1` as the compound, how does the CPE protection (higher = active) read?
**A.** The CPE protection (higher = active) was inactive: -0.832%.

**Q.** With `COc1cccc(NC(=O)CN(C)C(=O)Cc2ccc3c(c2)OCCO3)c1` as the compound, how does the CPE protection (higher = active) read?
**A.** Its CPE protection (higher = active) is inactive: 4.3%.

**Q.** Which CPE protection (higher = active) does the source give for `Cc1noc(C)c1S(=O)(=O)Nc1ccc2c(c1)C(=O)N([C@@H](C)CO)C[C@@H](C)[C@H](CN(C)S(=O)(=O)c1ccccc1)OCCCC[C@@H](C)O2` here?
**A.** The CPE protection (higher = active) was inactive: -19.5%.

**Q.** With `Cc1nc(C)c(CC(=O)N/N=C/c2ccc(O)cc2)c(=O)[nH]1` as the compound, how does the CPE protection (higher = active) read?
**A.** Its CPE protection (higher = active) is inactive: -17%.

**Q.** For `CCC(N=c1cc(-c2ccc(OC)c(OC)c2)oc2ccc(C)cc12)C(=O)O` (stereo not drawn), which CPE protection (higher = active) is on record?
**A.** The CPE protection (higher = active) was inactive: 7.66%.

**Q.** With `CC(C)NC(=O)Nc1ccc2c(c1)C(=O)N([C@@H](C)CO)C[C@H](C)[C@H](CN(C)C(=O)Nc1ccc3c(c1)OCO3)O2` as the compound, how does the CPE protection (higher = active) read?
**A.** The CPE protection (higher = active) was inactive: 3.83%.

**Q.** For `CCc1nc(SCc2ccccc2C)n[nH]1`, which CPE protection (higher = active) is on record?
**A.** The CPE protection (higher = active) was inactive: -4.43%.

**Q.** For `COc1cccc(OC)c1-c1cnc(NC(C)=O)cn1`, which CPE protection (higher = active) is on record?
**A.** The CPE protection (higher = active) was inactive: -15.4% [at 10 µM].

**Q.** With `COc1ccc2c3c([nH]c2c1)[C@H](CO)N(C(=O)c1ccccc1)CC31CN(S(=O)(=O)c2cccs2)C1` as the compound, how does the CPE protection (higher = active) read?
**A.** The CPE protection (higher = active) was inactive: 12.8%.

**Q.** Which CPE protection (higher = active) does the source give for `Nc1ccc2oc(-c3ccccc3Cl)cc(=O)c2c1O` here?
**A.** The CPE protection (higher = active) was inactive: 0.572%.

**Q.** Which CPE protection (higher = active) does the source give for `O=C(NC(C(=O)N1CCCC1C(=O)NC1CCCC1)c1ccccc1)c1cccs1` (stereo not drawn) here?
**A.** The CPE protection (higher = active) was inactive: -11.5%.

**Q.** For `C[C@H](CO)N1C[C@H](C)[C@H](CN(C)C(=O)Nc2ccc(C(F)(F)F)cc2)OCCCC[C@H](C)Oc2ccc(NS(=O)(=O)c3ccc(F)cc3)cc2C1=O`, which CPE protection (higher = active) is on record?
**A.** Its CPE protection (higher = active) is inactive: 7.18%.

**Q.** With `CN(C)c1ccc(CC(=O)N2CCCC(c3cc(C(=O)Nc4ccc(F)c(Cl)c4)no3)C2)cc1` (stereo not drawn) as the compound, how does the CPE protection (higher = active) read?
**A.** Its CPE protection (higher = active) is inactive: -9.94%.

**Q.** Which CPE protection (higher = active) does the source give for `CCOC(=O)C1CCN(C(=O)C2CC(=O)N(c3ccc4c(c3)OCCO4)C2)CC1` (stereo not drawn) here?
**A.** Its CPE protection (higher = active) is inactive: 31.2%.

**Q.** For `COCC(=O)Nc1ccc2c(c1)C(=O)N(C)C[C@@H](OC)[C@H](C)CN(C(C)=O)[C@H](C)CO2`, which CPE protection (higher = active) is on record?
**A.** Its CPE protection (higher = active) is inactive: 20.4%.

**Q.** For `COc1cc(OC)cc(-c2c(-c3cccs3)c3cc(-c4ccn[nH]4)ccc3n2C)c1`, which CPE protection (higher = active) is on record?
**A.** Its CPE protection (higher = active) is inactive: 21.2%.

**Q.** For `CCc1cccc(OCCN2CCCC2)c1`, which CPE protection (higher = active) is on record?
**A.** The CPE protection (higher = active) was inactive: -8.33%.

**Q.** With `O=S(=O)(c1cnc(Cl)c(Cl)c1)N1CCc2ccccc21` as the compound, how does the CPE protection (higher = active) read?
**A.** Its CPE protection (higher = active) is inactive: -9.93%.

**Q.** Which CPE protection (higher = active) does the source give for `CCOC(=O)[C@@H]1[C@H]2COc3ccc(Br)cc3[C@@H]2N2C(=O)N(c3ccc(C)cc3)C(=O)[C@]12C` here?
**A.** Its CPE protection (higher = active) is inactive: -5.7%.

**Q.** For `Cc1ccc(S(=O)(=O)N2CCCCC2)cc1NC(=O)c1cc(=O)[nH]c2ccccc12`, which CPE protection (higher = active) is on record?
**A.** Its CPE protection (higher = active) is inactive: -6.88%.

**Q.** Which CPE protection (higher = active) does the source give for `O=C(C[C@@H]1CC[C@H]2[C@@H](COC[C@@H](O)CN2C(=O)c2ccncc2)O1)NCc1ccc(-c2ccccc2)cc1` here?
**A.** The CPE protection (higher = active) was inactive: -12.4%.

**Q.** For `C[C@@H]1CN([C@H](C)CO)C(=O)c2cc(-c3ccccc3)cnc2O[C@@H]1CN(C)C(=O)c1ccccc1F`, which CPE protection (higher = active) is on record?
**A.** Its CPE protection (higher = active) is inactive: 3.63%.

**Q.** For `COc1cc(OC)cc(C(=O)Nc2ccc3nc4n(c(=O)c3c2)CCCC4)c1`, which CPE protection (higher = active) is on record?
**A.** Its CPE protection (higher = active) is inactive: -7.66%.

**Q.** With `Cc1cc(Cl)c2oc(C(=O)N(C)CCCCN3CCOCC3)c(C)c2c1` as the compound, how does the CPE protection (higher = active) read?
**A.** The CPE protection (higher = active) was inactive: 16.9%.

**Q.** For `O=C(C[C@H]1C=C[C@H](NS(=O)(=O)c2ccccc2)[C@H](CO)O1)N1CCC(Cc2ccccc2)CC1`, which CPE protection (higher = active) is on record?
**A.** The CPE protection (higher = active) was inactive: -16.4%.

**Q.** Which CPE protection (higher = active) does the source give for `COc1ccc(-c2ccc3c(c2)[C@@H]2[C@@H](CCN2C(=O)C2CCOCC2)[C@@H](CO)N3C)cc1` here?
**A.** Its CPE protection (higher = active) is inactive: -18%.

**Q.** With `C[C@@H]1CCCCO[C@@H](CN(C)C(=O)c2ccccc2)[C@@H](C)CN([C@H](C)CO)C(=O)c2cc(NC(=O)CCC(F)(F)F)ccc2O1` as the compound, how does the CPE protection (higher = active) read?
**A.** The CPE protection (higher = active) was inactive: -4.35%.

**Q.** Which CPE protection (higher = active) does the source give for `O=C(O)Cc1ccc(NC(=O)c2ccc(NC(=O)C3CC3)cc2)cc1` here?
**A.** The CPE protection (higher = active) was inactive: -6.03%.

**Q.** Which CPE protection (higher = active) does the source give for `O=C(Nc1nnc(Cc2ccccc2F)s1)c1ccccc1Cl` here?
**A.** The CPE protection (higher = active) was inactive: 12%.

**Q.** Which CPE protection (higher = active) does the source give for `CCN(C(=O)N(CC)c1ccccc1)c1ccccc1` here?
**A.** The CPE protection (higher = active) was inactive: 2.33%.

**Q.** Which CPE protection (higher = active) does the source give for `COc1ccc(S(=O)(=O)N2CCCCC2c2cc(C(=O)Nc3ccccc3)no2)cc1` (stereo not drawn) here?
**A.** The CPE protection (higher = active) was inactive: 23%.

**Q.** Which CPE protection (higher = active) does the source give for `O=S(=O)(c1cccs1)N1CCN(c2ccnc3cc(Cl)ccc23)CC1` here?
**A.** The CPE protection (higher = active) was inactive: 21.1%.

**Q.** With `COC(=O)C1(CC2CC(c3ccncc3)=NO2)CCN(C(=O)OC(C)(C)C)CC1` (stereo not drawn) as the compound, how does the CPE protection (higher = active) read?
**A.** Its CPE protection (higher = active) is inactive: -25.7%.

**Q.** For `Cc1ccc(Cn2cc(CN3CC(N4CCSCC4)CS3(=O)=O)nn2)cc1` (stereo not drawn), which CPE protection (higher = active) is on record?
**A.** The CPE protection (higher = active) was inactive: 14.4%.

**Q.** With `CNC[C@@H]1OCCCC[C@H](C)Oc2ccc(NS(=O)(=O)c3c(C)noc3C)cc2C(=O)N([C@@H](C)CO)C[C@H]1C` as the compound, how does the CPE protection (higher = active) read?
**A.** Its CPE protection (higher = active) is inactive: 17.3%.

**Q.** For `CC(C)(C)c1ccc(C(=O)OCC(=O)Nc2sc3c(c2C#N)CCC3)cc1`, which CPE protection (higher = active) is on record?
**A.** The CPE protection (higher = active) was inactive: 6.08%.

**Q.** Which CPE protection (higher = active) does the source give for `Cc1cc(NC(=O)Cn2c(=O)oc3ccc(Cl)cc32)no1` here?
**A.** The CPE protection (higher = active) was inactive: 21.6%.

**Q.** With `COc1cc2c(cc1OC)C(Nc1ccc(S(N)(=O)=O)cc1)=NC(C)(C)C2` as the compound, how does the CPE protection (higher = active) read?
**A.** The CPE protection (higher = active) was inactive: -11.4%.

**Q.** With `Cn1c(=O)c2[nH]c(CCCCc3nc4ccccc4[nH]3)nc2n(C)c1=O` as the compound, how does the CPE protection (higher = active) read?
**A.** Its CPE protection (higher = active) is inactive: 6.76%.

**Q.** For `Cc1ccc2c(COC(=O)CNC(=O)c3ccccc3)cc(=O)oc2c1`, which CPE protection (higher = active) is on record?
**A.** Its CPE protection (higher = active) is inactive: -8.55%.

**Q.** For `CN(C)C(=O)c1cccc(-c2ccc(C3[C@H]4CNC[C@@H]3N4Cc3cc(F)ccc3F)cc2)c1` (stereo partly drawn), which CPE protection (higher = active) is on record?
**A.** The CPE protection (higher = active) was inactive: -17%.

**Q.** Which CPE protection (higher = active) does the source give for `CC1CCCCC12NC(=O)N(CC(=O)NCc1cccs1)C2=O` (stereo not drawn) here?
**A.** Its CPE protection (higher = active) is inactive: 2.88%.

**Q.** Which CPE protection (higher = active) does the source give for `Cc1ccc2[nH]c(-c3ccccc3)cc(=O)c2c1` here?
**A.** Its CPE protection (higher = active) is inactive: -26.5%.

**Q.** Which CPE protection (higher = active) does the source give for `CC1CCC(CN2CCN=C2Nc2ccccc2)CC1` (stereo not drawn) here?
**A.** The CPE protection (higher = active) was inactive: 26.6%.

**Q.** Which CPE protection (higher = active) does the source give for `O=C(NCc1ccccc1)[C@H]1CCCN1C(=O)[C@H]1CCCN1C(=O)c1ccc(Cl)cc1` here?
**A.** Its CPE protection (higher = active) is inactive: -10.2%.

**Q.** For `CN1C[C@@H]2[C@@H]3C(=O)N(Cc4ccccc4)C(=O)[C@@H]3[C@](C)(C1=O)N2C(=O)c1ccc(C(C)(C)C)cc1`, which CPE protection (higher = active) is on record?
**A.** Its CPE protection (higher = active) is inactive: 8.78%.

**Q.** With `C[C@@H]1CCCCO[C@@H](CN(C)S(=O)(=O)c2ccc(F)cc2)[C@@H](C)CN([C@H](C)CO)C(=O)c2cc(NC(=O)Nc3ccc(C(F)(F)F)cc3)ccc2O1` as the compound, how does the CPE protection (higher = active) read?
**A.** The CPE protection (higher = active) was inactive: -3.5% [at 21 µM].

**Q.** For `Cc1cnc(CN(C)C(=O)CC2C(=O)NCCN2Cc2cccc(F)c2F)[nH]1` (stereo not drawn), which CPE protection (higher = active) is on record?
**A.** The CPE protection (higher = active) was inactive: 12.8%.
